From article PMC5548744
These are yes or no findings as the source states them, for the method shown. Binding seen in cells or lysates may run through a third protein. Some results given as binding are weak or reduced against the parent protein; the word gives no strength.

By UniProt entry, the sequences of proteins in these tests, tags left out.
UniProt Q8K371: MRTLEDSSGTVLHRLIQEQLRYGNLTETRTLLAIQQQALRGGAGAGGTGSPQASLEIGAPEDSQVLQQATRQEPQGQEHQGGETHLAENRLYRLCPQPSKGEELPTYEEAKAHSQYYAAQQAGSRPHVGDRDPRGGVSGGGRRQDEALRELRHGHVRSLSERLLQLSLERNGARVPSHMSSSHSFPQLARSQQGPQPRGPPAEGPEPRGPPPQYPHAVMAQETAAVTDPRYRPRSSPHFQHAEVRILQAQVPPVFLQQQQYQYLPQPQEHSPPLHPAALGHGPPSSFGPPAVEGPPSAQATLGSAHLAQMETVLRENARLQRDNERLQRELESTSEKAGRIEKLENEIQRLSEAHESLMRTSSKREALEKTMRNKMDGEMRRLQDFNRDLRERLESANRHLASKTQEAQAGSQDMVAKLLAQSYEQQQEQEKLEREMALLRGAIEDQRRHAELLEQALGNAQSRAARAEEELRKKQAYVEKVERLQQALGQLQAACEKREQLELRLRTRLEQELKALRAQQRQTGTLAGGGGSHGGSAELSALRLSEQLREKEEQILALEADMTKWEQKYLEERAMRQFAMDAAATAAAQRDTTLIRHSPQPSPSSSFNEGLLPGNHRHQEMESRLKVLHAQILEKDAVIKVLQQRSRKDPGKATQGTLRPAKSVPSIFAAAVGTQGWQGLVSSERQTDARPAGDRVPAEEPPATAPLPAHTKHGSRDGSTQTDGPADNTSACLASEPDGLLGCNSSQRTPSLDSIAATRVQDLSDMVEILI

Target: Angiomotin-Like-2 (AmotL2), endogenous in MS-1 mouse endothelial cells (mouse (endogenous in MS-1)) (UniProt Q8K371)
Assay: co-IP; MS-1 cell lysate (50 mM Tris-HCl pH 7.6, 150 mM NaCl, 1 mM EDTA, 1% Nonidet P40); precipitated with rabbit antibody against the C-terminal motif of human amotL2, Protein G Sepharose, 4 °C; partners detected by western blot

B1: Par3, 150 kDa isoform, endogenous in MS-1 cells (protein, UniProt Q99NH2-2 1-1029)
chain: MKVTVCFGRTRVVVPCGDGRMKVFSLIQQAVTRYRKAVAKDPNYWIQVHRLEHGDGGILDLDDILCDVADDKDRLVAVFDEQDPHHGGDGTSASFTGTQSPEIFGSELGTNNVSAFQPYQATSEIEVTPSVLRANMPLHVRRSSDPALTGLSTSVSDNNFSSEEPSRKNPTRWSTTAGFLKQNTAGSPKTCDRKKDENYRSLPRDPSSWSNQFQRDNARSSLSASHPMVDRWLEKQEQDEEGTEEDSSRVEPVGHADTGLENMPNFSLDDMVKLVQVPNDGGPLGIHVVPFSARGGRTLGLLVKRLEKGGKAEQENLFHENDCIVRINDGDLRNRRFEQAQHMFRQAMRARVIWFHVVPAANKEQYEQLSQREKNNYSPGRFSPDSHCVANRSVANNAPQALPRAPRLSQPPEQLDAHPRLPHSAHASTKPPAAPALAPPSVLSTNVGSVYNTKKVGKRLNIQLKKGTEGLGFSITSRDVTIGGSAPIYVKNILPRGAAIQDGRLKAGDRLIEVNGVDLAGKSQEEVVSLLRSTKMEGTVSLLVFRQEEAFHPREMNAEPSQMQTPKETKAEDEDVVLTPDGTREFLTFEVPLNDSGSAGLGVSVKGNRSKENHADLGIFVKSIINGGAASKDGRLRVNDQLIAVNGESLLGKANQEAMETLRRSMSTEGNKRGMIQLIVARRISRCNELRSPGSPAAPELPIETELDDRERRISHSLYSGIEGLDESPTRNAALSRIMGKCQLSPTVNMPHDDTVMIEDDRLPVLPPHLSDQSSSSSHDDVGFIMTEAGTWAKATISDSADCSLSPDVDPVLAFQREGFGRQSMSEKRTKQFSDASQLDFVKTRKSKSMDLVADETKLNTVDDQRAGSPSRDVGPSLGLKKSSSLESLQTAVAEVTLNGNIPFHRPRPRIIRGRGCNESFRAAIDKSYDKPMVDDDDEGMETLEEDTEESSRSGRESVSTSSDQPSYSLERQMNGDPEKRDKTERKKDKAGKDKKKDREKEKDKLKAKKGMLKGLGDMFRFGKHRKDD
- binding: binds

B2: Par3, 100 kDa isoform, endogenous in MS-1 cells (protein, UniProt Q99NH2-3 1-744)
chain: MKVTVCFGRTRVVVPCGDGRMKVFSLIQQAVTRYRKAVAKDPNYWIQVHRLEHGDGGILDLDDILCDVADDKDRLVAVFDEQDPHHGGDGTSASFTGTQSPEIFGSELGTNNVSAFQPYQATSEIEVTPSVLRANMPLHVRRSSDPALTGLSTSVSDNNFSSEEPSRKNPTRWSTTAGFLKQNTAGSPKTCDRKKDENYRSLPRDPSSWSNQFQRDNARSSLSASHPMVDRWLEKQEQDEEGTEEDSSRVEPVGHADTGLENMPNFSLDDMVKLVQVPNDGGPLGIHVVPFSARGGRTLGLLVKRLEKGGKAEQENLFHENDCIVRINDGDLRNRRFEQAQHMFRQAMRARVIWFHVVPAANKEQYEQLSQREKNNYSPGRFSPDSHCVANRSVANNAPQALPRAPRLSQPPEQLDAHPRLPHSAHASTKPPAAPALAPPSVLSTNVGSVYNTKKVGKRLNIQLKKGTEGLGFSITSRDVTIGGSAPIYVKNILPRGAAIQDGRLKAGDRLIEVNGVDLAGKSQEEVVSLLRSTKMEGTVSLLVFRQEEAFHPREMNAEPSQMQTPKETKAEDEDVVLTPDGTREFLTFEVPLNDSGSAGLGVSVKGNRSKENHADLGIFVKSIINGGAASKDGRLRVNDQLIAVNGESLLGKANQEAMETLRRSMSTEGNKRGMIQLIVARRISRCNELRSPGSPAAPELPIETELDDRERRISHSLYSGIEGLDESPTRNAALSRIMGESGT
- binding: binds
